Residue numbers refer to the chain shown, from its start. No constants are given. Whether binding was seen depends on the method and setting. In cells and extracts the contact can be indirect. Binding can be weak; no strength is given. For some assays here: Tags and fused reporters may be left off the sequences shown.
Legend:
[1] = biological target: T1, GST-BEX4 C-terminal (C; 61 ~120 a.a) (human) (UniProt Q9NWD9); test: pull-down; U2OS cell extracts incubated with beads bound to GST, GST-BEX4 (FL) or GST-BEX4 N, M, C; bound proteins immunoblotted; only the target purified
T1 sequence: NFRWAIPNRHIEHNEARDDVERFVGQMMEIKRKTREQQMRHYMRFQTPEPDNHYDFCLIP

Sequences of proteins named here, by UniProt entry; tags and fusion partners are left off. A change or cut given only in a name is not applied to a line headed by its entry.
UniProt P23258: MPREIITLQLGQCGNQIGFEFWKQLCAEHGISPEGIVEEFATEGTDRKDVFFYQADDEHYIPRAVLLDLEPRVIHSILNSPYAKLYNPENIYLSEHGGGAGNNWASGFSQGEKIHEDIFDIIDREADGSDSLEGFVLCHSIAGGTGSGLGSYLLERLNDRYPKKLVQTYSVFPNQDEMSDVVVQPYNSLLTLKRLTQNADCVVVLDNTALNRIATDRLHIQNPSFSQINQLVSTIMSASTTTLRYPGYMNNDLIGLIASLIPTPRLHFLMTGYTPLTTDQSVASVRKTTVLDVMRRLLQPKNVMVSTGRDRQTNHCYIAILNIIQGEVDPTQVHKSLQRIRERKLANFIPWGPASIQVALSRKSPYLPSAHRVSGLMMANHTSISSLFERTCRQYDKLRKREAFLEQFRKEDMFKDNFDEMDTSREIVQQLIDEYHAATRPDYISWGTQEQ

[2] = biological target: T2, GST-BEX4 middle (M; 31~90 a.a) (human) (UniProt Q9NWD9); test: as above
T2 sequence: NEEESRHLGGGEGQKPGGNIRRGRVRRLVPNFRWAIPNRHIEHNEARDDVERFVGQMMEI

GST-SIRT2 H187Y mutant = biological target: T3, GST-SIRT2 H187Y mutant (UniProt Q8IXJ6); test: pull-down; purified GST, GST-SIRT2 (WT) or GST-SIRT2 H187Y incubated with U2OS cell extracts and pulled down with beads; bound proteins immunoblotted; only the target purified
T3 sequence: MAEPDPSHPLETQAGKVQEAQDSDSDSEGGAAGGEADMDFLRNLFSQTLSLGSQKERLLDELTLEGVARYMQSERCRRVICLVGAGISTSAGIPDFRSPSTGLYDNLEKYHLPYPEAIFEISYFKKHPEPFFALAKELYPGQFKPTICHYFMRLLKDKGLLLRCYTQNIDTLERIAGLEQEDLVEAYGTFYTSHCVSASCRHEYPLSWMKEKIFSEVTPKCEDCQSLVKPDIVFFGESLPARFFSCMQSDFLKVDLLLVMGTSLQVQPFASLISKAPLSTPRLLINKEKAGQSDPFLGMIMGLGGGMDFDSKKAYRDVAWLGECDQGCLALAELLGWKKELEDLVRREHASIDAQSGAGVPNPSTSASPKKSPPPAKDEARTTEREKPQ

GST-SIRT2 wild type (WT) = biological target: T4, GST-SIRT2 wild type (WT) (UniProt Q8IXJ6); test: as above
T4 sequence: T3 sequence with Y187H

[3] = biological target: T5, tandem affinity purification (TAP)-tagged BEX4 (HeLa) (human) (UniProt Q9NWD9); test: pull-down; lysates of HeLa cells expressing TAP-BEX4 or TAP alone incubated with streptavidin sepharose beads; bound proteins immunoblotted
T5 sequence: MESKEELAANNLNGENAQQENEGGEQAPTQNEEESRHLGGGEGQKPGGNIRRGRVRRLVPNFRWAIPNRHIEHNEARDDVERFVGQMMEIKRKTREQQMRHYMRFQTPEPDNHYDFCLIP

[4] = biological target: T6, BEX4 (endogenous, HeLa) (human (endogenous in HeLa)) (UniProt Q9NWD9); test: co-IP; HeLa cell lysates immunoprecipitated with anti-BEX4 antibody and immunoblotted
T6 sequence: T5 sequence

Q: What does the source list for “α-tubulin (endogenous, U2OS) (human (endogenous in U2OS))”?
A: binding [1]: binds; binding [2]: binds weakly; binding (GST-SIRT2 H187Y mutant): binds; binding (GST-SIRT2 wild type (WT)): binds

Q: How did the binding [3] turn out when “γ-tubulin (endogenous, HeLa) (from UniProt P23258)” was run?
A: Its binding is “binds weakly”.

Q: Which binding [3] does the source give for “β-tubulin (endogenous, HeLa) (human (endogenous in HeLa))” here?
A: The binding was “binds weakly”.

Q: Which binding [4] does the source give for “α-tubulin (endogenous, HeLa) (human (endogenous in HeLa))” here?
A: Its binding is “binds”.

Q: What about the binding [3] of the same substance?
A: The binding was “binds”.

Reference: PMC5108325
